# Measurements as given in patent US20110082197A1, “Method for inhibiting formation and/or activation of osteoclasts using flemingia macrophylla extract or lespedeza flavanone A” (CHINA MEDICAL UNIVERSITY, priority 2009, published 2011).
# Legend:
# OVX rats [1] = assay: Weight ratio of bone ash and calcium content of fifth vertebra; format: in vivo, Wistar rats; settings: % of dry weight, oral, alendronate 2.5 mg/kg-body weight per day, 13 weeks
# Protocol: (§1) Female Wistar rats (BioLASCO, Taipei, Taiwan) were used in the following experiments. In an experiment group, the rats were anesthetized with 40 mg/kg-body weight of pentobarbital sodium, and ovaries in both sides of the dorsum of the rats were removed to induce osteoporosis, and a decrease in estrogen of the postmenopausal female rats was observed. The rats of which ovaries were removed (i.e., ovariectomized rat) are represented as “OVX rats” hereinafter. In the control group (i.e., a sham group), the skin and muscle on the ovary positions at both sides of the dorsum of the rats were incised and then sutured, while the ovaries were not removed.
# (§2) After one week from the surgery, the control group was administrated water orally every day. In the experiment group, the OVX rats were separated into five groups, and were orally administrated with the Flemingia macrophylla extract (0, 50, 250 or 500 mg/kg-body weight, calculated as the dry weight of the extract) or 2.5 mg/kg-body weight of alendronate (an anti-osteoporosis drug as a positive control, Sigma-Aldrich, St. Louis, Mo., USA) per day for 13 weeks. During the administration, the body weight of each rat was measured once a week until the last day of the administration. Distilled water was added into the extract to form a suspension, and the rats were administrated orally with 1 ml/100 g-body weight of the suspension. […]
# OVX rats [2] = assay: Density and content of minerals in tibiae (dual-energy X-ray absorptiometer); format: in vivo, Wistar rats; settings: oral, alendronate 2.5 mg/kg-body weight per day, 13 weeks
# Protocol: as §1, §2
structure (smiles),measurement,setting,value
NCCCC(O)(P(=O)(O)O)P(=O)(O)O [alendronate],the weight ratio of bone ash,OVX rats [1],62.1 ± 1.5 %
same,mineral density,OVX rats [2],0.14 ± 0.01 g/mL
